Results are given in words; binding and its absence hold for the method and conditions named. Binding seen in cells or lysates may run through a third protein. Some binding calls cover weakened binding; strength is not graded here.
Tests used:
[1] = target: cyclin B1 (human (endogenous in HFF)) (UniProt P14635); assay: co-IP; lysates of HFF infected with BADwt or BAD-UL97-as1 (MOI 0.5, 4 d.p.i.); cyclin B1 immunoprecipitated with pAb-cyclin B1, pUL97 detected by Western blot; DMSO solvent control, and for BADwt also 40 µM 3MB-PP1 from 4 h before harvest and during lysis; two biological replicates
[2] = target: cyclin B1 (human (endogenous in HFF)) (UniProt P14635); assay: condition: only with 40 µM 3MB-PP1 (4 h before harvest and during cell lysis); co-IP; lysates of HFF infected with BAD-UL97-as1 (MOI 0.5, 4 d.p.i.), treated with 40 µM 3MB-PP1 from 4 h before harvest and again during lysis; cyclin B1 immunoprecipitated with pAb-cyclin B1, pUL97 detected by Western blot; two biological replicates

Sequences of proteins named here, by UniProt entry; tags and fusion partners are left off.
UniProt P14635: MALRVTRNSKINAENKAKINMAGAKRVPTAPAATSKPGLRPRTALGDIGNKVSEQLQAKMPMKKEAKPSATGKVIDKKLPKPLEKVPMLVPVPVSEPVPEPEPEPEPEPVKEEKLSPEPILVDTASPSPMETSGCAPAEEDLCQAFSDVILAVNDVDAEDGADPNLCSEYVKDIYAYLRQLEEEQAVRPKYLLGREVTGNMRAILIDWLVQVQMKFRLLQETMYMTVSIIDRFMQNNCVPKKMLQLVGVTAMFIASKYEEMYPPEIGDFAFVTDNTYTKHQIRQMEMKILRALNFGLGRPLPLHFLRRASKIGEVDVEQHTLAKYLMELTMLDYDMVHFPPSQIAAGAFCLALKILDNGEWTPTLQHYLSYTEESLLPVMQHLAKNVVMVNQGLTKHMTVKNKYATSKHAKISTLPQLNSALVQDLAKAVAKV

## analog-sensitive HCMV protein kinase pUL97-as1 (H411G), expressed by recombinant BAD-UL97-as1 (from UniProt P16788 1-707) (enzyme)
[1]
  binding: binds
[2]
  binding: no binding

Reference: publication PMC9610083
